Experimental data: PubChem BioAssay AID504444 (National Center for Advancing Translational Sciences (NCATS), 2011)
The whole screen tested about 360,000 compounds, of which about 7,500 (2.1%) were called active. Inconclusive results, whose numbers are uncertain, are shown with a selection of clear calls. Calls come from the whole dose curve; as a rule, active = well fitted inhibition curve with a large enough effect; inconclusive = small, poorly fitted or top-dose-only effect, or effect the other way; inactive = flat fitted curve, though single readings scatter. Potencies beside an inconclusive call are fits to weak or partial responses and may not hold up.
Potency is the fitted concentration of half-maximal effect.

Assay: Nrf2 qHTS screen for inhibitors; note: nearly all actives have a fitted effect of over 60% in size
Conditions: A549 ARE-Fluc reporter, luciferase luminescence, 18-24 h; series mostly up to 46 µM
How it was run: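 Two sequential reads on A549 ARE_Fluc cells exposed to compound for 18-24 h: a CellTiter-Fluor fluorescence read for viability, then a luciferase luminescence read for Nrf2/ARE activity.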
With `CCOC(=O)c1cc(NC(=O)c2ccccc2)c(=O)n2c1oc1ccccc12` the Potency was inconclusive: 1.46 µM [falling, partial curve]. For `CC1CCN(C(=O)COC(=O)c2ccc3c(c2)OCO3)CC1`, the Potency was inconclusive: 23.1 µM [activator, partial curve]. For `O=C(Nc1ccc(CSc2ccccc2)cc1)c1ccccc1`, the Potency was inconclusive: 1.64 µM [activator, full curve]. For `CCC1C/C(=C\c2cccnc2)C(=O)/C(=C/c2cccnc2)C1` (stereo unspecified), the Potency was inconclusive: 18.4 µM [falling, partial curve, poor fit]. With `CCOC(=O)c1cc(OC(=O)c2ccccc2C)n(-c2ccccc2)n1` the Potency was “inactive”. With `Cc1cc[n+](CC[n+]2ccc(C)cc2)cc1` the Potency was “inactive”. With `N#C/C(=C\C1=C(N2CCOCC2)C(=C\c2ccccc2)/CC1)C(=O)Nc1ccccc1F` the Potency was “inactive”. For `CN(CC(=O)NCCc1ccc(S(N)(=O)=O)cc1)CC(=O)Nc1ccc(Cl)c(C(F)(F)F)c1`, the Potency was inconclusive: 29.1 µM [falling, single point]. In the case of `CC(=O)c1cnc(-c2ccccc2Cl)s1`, the Potency is reported as inconclusive: 6.51 µM [activator, partial curve, poor fit]. In the case of `O=C(O)c1ccc(-c2nnc(-c3ccccc3)o2)cc1`, the Potency is reported as inconclusive: 3.26 µM [activator, full curve, poor fit]. In the case of `Cc1cc(C)c(NC(=O)COC(=O)CCc2ccc(S(=O)(=O)N3CCCCC3)cc2)c(C)c1`, the Potency is reported as inconclusive: 3.66 µM [falling, single point]. With `Cc1ccc(-n2nc3c(=O)n(CC(=O)NCCC4=CCCCC4)nc(C)c3c2C)cc1` the Potency was inconclusive: 23.1 µM [falling, single point]. In the case of `Cc1ccc(S(=O)(=O)N2CCC(C(=O)Nc3ccc(C)c(Cl)c3)CC2)cc1`, the Potency is reported as inconclusive: 3.26 µM [falling, full curve]. For `c1ccc2c(c1)OCC(c1nnc3sc(-c4ccc5c(c4)OCO5)nn13)O2` (stereo unspecified), the Potency was inconclusive: 25.9 µM [activator, single point]. For `CC(C)CN(C(=O)COc1ccc2ccc(=O)oc2c1)C1CCS(=O)(=O)C1` (stereo unspecified), the Potency was “inactive”. In the case of `COc1cc2c(cc1NC(=S)Nc1cccc3ccccc13)oc1ccccc12`, the Potency is reported as “inactive”. For `CC1=CCC(C(=O)O)C(C(=O)Nc2ccc(-c3nc4ccc(C)cc4s3)cc2)C1` (stereo unspecified), the Potency was inconclusive: 7.31 µM [activator, partial curve]. For `COC(=O)c1ccc(Oc2cc(C)nc(NCc3ccccc3)n2)cc1`, the Potency was “inactive”. In the case of `O=C(CC1C(=O)N(c2ccc(Cl)cc2)C(=S)N1CCc1ccncc1)Nc1ccc(F)cc1` (stereo unspecified), the Potency is reported as inconclusive: 29.1 µM [falling, single point]. In the case of `CC(C)(C(N)=O)N1CCN(c2ncc(C(F)(F)F)cc2Cl)CC1`, the Potency is reported as inconclusive: 29.1 µM [falling, single point]. For `Cc1nc2ccccn2c1C(=O)NC1CCCc2ccccc21` (stereo unspecified), the Potency was active: 1.64 µM. In the case of `CCC(C)C(NS(=O)(=O)c1ccc(C)cc1)C(=O)Oc1ccc2c3c(c(=O)oc2c1)CCC3` (stereo unspecified), the Potency is reported as inconclusive: 2.59 µM [activator, partial curve, poor fit]. With `CCOC(=O)c1c(C)[nH]c(C)c1S(=O)(=O)N1CCN(c2cccc(C(F)(F)F)c2)CC1` the Potency was “inactive”. For `Cc1cc2cc(C)c3nnc(SCC(=O)NCc4ccc5c(c4)OCO5)n3c2cc1C`, the Potency was inconclusive: 13 µM [falling, partial curve, poor fit]. With `CN(CC(=O)Nc1cccc(F)c1)C(=O)c1ccc(N2CCCCC2)c([N+](=O)[O-])c1` the Potency was inconclusive: 20.6 µM [falling, single point]. In the case of `O=C(CSCc1cnn(-c2ccccc2)c1-n1cccc1)NCc1ccccn1`, the Potency is reported as inconclusive: 25.9 µM [falling, single point]. In the case of `COc1ccc(-c2oc3ccc(N4CCOCC4)cc3c2C#CCO)cc1`, the Potency is reported as active: 18.4 µM. For `Cc1ccc(C)c(S(=O)(=O)N2CCN(C(=O)c3cc(-c4cccs4)nn3-c3ccccc3)CC2)c1`, the Potency was inconclusive: 23.1 µM [falling, single point]. In the case of `O=C(C1CC1)N1CCC(c2nc(-c3ccc(S(=O)(=O)N4CCCC4)cc3)no2)CC1`, the Potency is reported as “inactive”. With `COc1cc(S(=O)(=O)N2CCC(O)(c3cccc(C(F)(F)F)c3)CC2)ccc1-n1cnnn1` the Potency was inconclusive: 29.1 µM [falling, single point]. With `Cc1ccc2[nH]c3c(=O)n(CC(=O)N4CCCCC4)ncc3c2c1` the Potency was inconclusive: 13 µM [activator, partial curve]. With `COc1ccc(OC)c(CNC(=O)C2CCN(c3nc4ccccc4nc3C(F)(F)F)CC2)c1` the Potency was inconclusive: 14.6 µM [activator, partial curve]. In the case of `O=C(N/N=C/c1cccnc1)c1[nH]ncc1Br`, the Potency is reported as inconclusive: 2.91 µM [activator, partial curve, poor fit]. For `CC(C)(C)OC(=O)N/N=C\c1cccnc1`, the Potency was inconclusive: 14.6 µM [activator, partial curve]. For `O=C(c1ccccc1)c1c[nH]cc1-c1ccccc1`, the Potency was inconclusive: 0.517 µM [activator, full curve, poor fit]. In the case of `CC(=O)Nc1ccc(NC(=O)CC(C)n2ccnc2)cc1` (stereo unspecified), the Potency is reported as “inactive”. With `CC(C)CCNC(=O)c1ccc2c(SCC(=O)O)c3c(nc2c1)CCC3` the Potency was inconclusive: 25.9 µM [falling, single point]. In the case of `COc1ccccc1CCNC(=O)C(=O)NCCC1CCCCN1S(=O)(=O)c1cccs1` (stereo unspecified), the Potency is reported as inconclusive: 20.6 µM [falling, single point]. In the case of `O=C(CNC(=O)c1ccc2c(c1)OCCO2)N/N=C/c1ccc(Cl)cc1`, the Potency is reported as “inactive”. For `CCc1ccccc1Nc1nc2ccccc2c2nncn12`, the Potency was inconclusive: 0.326 µM [activator, partial curve, poor fit]. For `COc1cc(OC)cc(-c2cc3nc(C)c(CCC(=O)NCc4ccc(Cl)cc4)c(C)n3n2)c1`, the Potency was active: 10.3 µM. In the case of `Cc1ccc(/C=N/NC(=O)c2ccccc2OCc2ccc(F)cc2)o1`, the Potency is reported as inconclusive: 20.6 µM [falling, single point]. With `C(=C\c1nnc(-c2cccs2)o1)/c1ccccc1` the Potency was inconclusive: 9.2 µM [activator, partial curve]. In the case of `Cc1cccn2c(CNCC3(c4ccccc4)CCCC3)c(C(=O)N3CCOCC3)nc12`, the Potency is reported as “inactive”. In the case of `CCN1/C(=C/C=C/C=C/C=C/c2sc3ccccc3[n+]2CC)Sc2ccccc21`, the Potency is reported as active: 20.6 µM. In the case of `Cc1cccn2c(=O)c(C=O)c(Sc3ncccn3)nc12`, the Potency is reported as inconclusive: 2.59 µM [activator, partial curve, poor fit]. With `c1cncc(-c2noc(-c3ccc4ccccc4c3)n2)c1` the Potency was inconclusive: 7.31 µM [activator, partial curve]. With `CCNc1nc(NCC)n2c(SCC(=O)Nc3ccc(OC)c(OC)c3)nnc2n1` the Potency was “inactive”. For `Cc1nn(CC(=O)N(C)C2CCS(=O)(=O)C2)c(C)c1S(=O)(=O)N(C)C` (stereo unspecified), the Potency was “inactive”. With `CC(C)c1ccc(C(=O)OCC(=O)c2c(N)n(C)c(=O)n(C)c2=O)cc1` the Potency was inconclusive: 20.6 µM [falling, single point]. With `O=C(NCCCC1CCCC1)C1CCC(=O)N(Cc2ccc(Cl)cc2)C1` (stereo unspecified) the Potency was inconclusive: 29.1 µM [falling, single point]. With `Cc1cccc(OCc2nnc(SCC(=O)c3ccccc3)o2)c1` the Potency was “inactive”. With `CCOC(=O)C1=C(C)N(C[C@@H]2CC[C@@H](Cc3ccc(-c4ccccc4)cc3)O2)C(=O)NC1c1cccc([N+](=O)[O-])c1` (stereo partly specified) the Potency was inconclusive: 29.1 µM [falling, single point]. In the case of `N#CN1CCC(N[S+](=O)([O-])c2cccc(F)c2)CC1`, the Potency is reported as “inactive”. For `CCOc1ccc2oc(=O)cc(C)c2c1`, the Potency was “inactive”. With `Cc1cc(C)nc(NC(=O)Nc2ccc3c(c2)OCO3)c1` the Potency was inconclusive: 0.164 µM [activator, full curve, poor fit]. For `Cc1cccc(NC(=O)Nc2cc(C)cc(C)n2)c1`, the Potency was inconclusive: 11.6 µM [activator, partial curve, poor fit]. With `CC(Oc1ccc2c3c(c(=O)oc2c1)CCCC3)C(=O)NCc1ccccn1` (stereo unspecified) the Potency was inconclusive: 10.3 µM [falling, partial curve, poor fit]. For `CCCSc1nnc2nc3c(nn12)c1ccccc1n3C`, the Potency was inconclusive: 0.0116 µM [falling, full curve, poor fit]. In the case of `O=C1/C(=C/c2ccncc2)SC(=S)N1C1CCS(=O)(=O)C1` (stereo unspecified), the Potency is reported as inconclusive: 14.6 µM [falling, partial curve]. For `Cc1ccc(C)c(S(=O)(=O)N2CCN(CC(=O)Nc3ccc([N+](=O)[O-])cc3)CC2)c1`, the Potency was inconclusive: 20.6 µM [falling, partial curve, poor fit]. With `COc1ccc(Nc2ccc(S(=O)(=O)N3CCCCCC3)cc2[N+](=O)[O-])cc1` the Potency was inconclusive: 18.4 µM [falling, partial curve]. With `COc1ccc(/C(C)=N/NC(=O)c2sccc2-n2cccc2)cc1` the Potency was inconclusive: 2.91 µM [activator, partial curve, poor fit]. In the case of `COc1ccc(OC)c2[nH]c(=O)c(CCNC(=O)c3cc4ccccc4o3)cc12`, the Potency is reported as “inactive”. For `Cc1ccc(Cc2cnc(NC(=O)/C(C#N)=C/c3ccc(-c4cccc([N+](=O)[O-])c4)o3)s2)cc1`, the Potency was inconclusive: 2.06 µM [falling, partial curve, poor fit]. For `Cc1[nH]n(-c2ccc(Br)cc2)c(=O)c1/C=N/NC(=O)c1ccccc1`, the Potency was inconclusive: 11.6 µM [falling, partial curve].
